{
  "sequences": {"note": "Protein sequences, listed by entry. Tags and fused reporters are not part of them.", "UniProt Q5FT75, entry or part of it": "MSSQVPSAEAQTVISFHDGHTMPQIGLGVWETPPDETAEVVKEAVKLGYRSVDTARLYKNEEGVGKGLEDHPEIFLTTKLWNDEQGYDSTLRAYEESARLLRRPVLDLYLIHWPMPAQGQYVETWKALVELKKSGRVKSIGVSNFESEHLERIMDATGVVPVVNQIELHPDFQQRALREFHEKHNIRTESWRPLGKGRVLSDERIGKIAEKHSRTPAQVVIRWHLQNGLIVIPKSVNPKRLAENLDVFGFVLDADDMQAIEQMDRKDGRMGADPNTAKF"},
  "source": "patent EP2316926B1",
  "about": "“Enantioselective production of alpha-hydroxy carbonyl compounds” (priority 2009, dated 2011)",
  "biological_target": "Gox0644 (Gluconobacter oxydans, UniProt Q5FT75)",
  "assay": "Acetaldehyde tolerance test",
  "type": "biochemical",
  "settings": "substrate 2,3-pentanedione; acetaldehyde concentration not given",
  "from_the_text": "The products derived from the α-diketone and α-ketoaldehyde substrate reactions were generated according to the cofactor regeneration protocol. This method overcomes the dependence of the enzymes on reduced cofactor by coupling the substrate reactions of Gox0644 and Gox1615, with the cofactor NADP reduction reaction based on the acetaldehyde oxidoreductase Gox1122 using acetaldehyde. […] In both the reactions with phenylglyoxal and 2,3-pentanedione, Gox0644 activity remained similar to the control reaction consisting of a reaction without acetaldehyde (Tab. 9/10). […] In the reaction with 2,3-pentanedione there was a slight decrease of about 20% from the control, however, the activity levels were still very high at 50.2 U/mg. […] Table 9: Gox0644 acetaldehyde tolerance tests with phenylglyoxal",
  "note": "The name of at least one read-out is uncertain.",
  "data": [
    {"molecule": "CC=O", "note": "[acetaldehyde]", "values": [
      {"measurement": "decrease from the control", "result": "about 20%"}
    ]}
  ]
}
